Reference: publication PMC4267655, “Brr2p carboxy-terminal Sec63 domain modulates Prp16 splicing RNA helicase” (Nucleic Acids Research, 2014)
Numbering of substitutions follows the chain as printed. Names may count otherwise. No constants are given. Whether binding was seen depends on the method and setting. Some entries that bind do so weakly or less than the wild type. Values belong to the binder of their own block, whether it stands above or below them.

Key:
Experiment in all cases: co-IP; Prp16p (3 μg) and Sec63-2p (1.5 μg) overnight at 4°C with protein A dynabeads and anti-Prp16p-029; 50-mM Tris-HCl pH 7.5, 150-mM NaCl, 1-mM MgSO4, 0.02% NP-40, BSA, glycogen, tRNA; with or without RNase A (30 ng/μl), ATP (5 mM) or poly I,C RNA (500 ng/μl); Sec63-2p detected with anti-His-HRP; both purified
[1] = target: T1, recombinant Prp16p R686I (budding yeast) (UniProt P15938)
T1 sequence: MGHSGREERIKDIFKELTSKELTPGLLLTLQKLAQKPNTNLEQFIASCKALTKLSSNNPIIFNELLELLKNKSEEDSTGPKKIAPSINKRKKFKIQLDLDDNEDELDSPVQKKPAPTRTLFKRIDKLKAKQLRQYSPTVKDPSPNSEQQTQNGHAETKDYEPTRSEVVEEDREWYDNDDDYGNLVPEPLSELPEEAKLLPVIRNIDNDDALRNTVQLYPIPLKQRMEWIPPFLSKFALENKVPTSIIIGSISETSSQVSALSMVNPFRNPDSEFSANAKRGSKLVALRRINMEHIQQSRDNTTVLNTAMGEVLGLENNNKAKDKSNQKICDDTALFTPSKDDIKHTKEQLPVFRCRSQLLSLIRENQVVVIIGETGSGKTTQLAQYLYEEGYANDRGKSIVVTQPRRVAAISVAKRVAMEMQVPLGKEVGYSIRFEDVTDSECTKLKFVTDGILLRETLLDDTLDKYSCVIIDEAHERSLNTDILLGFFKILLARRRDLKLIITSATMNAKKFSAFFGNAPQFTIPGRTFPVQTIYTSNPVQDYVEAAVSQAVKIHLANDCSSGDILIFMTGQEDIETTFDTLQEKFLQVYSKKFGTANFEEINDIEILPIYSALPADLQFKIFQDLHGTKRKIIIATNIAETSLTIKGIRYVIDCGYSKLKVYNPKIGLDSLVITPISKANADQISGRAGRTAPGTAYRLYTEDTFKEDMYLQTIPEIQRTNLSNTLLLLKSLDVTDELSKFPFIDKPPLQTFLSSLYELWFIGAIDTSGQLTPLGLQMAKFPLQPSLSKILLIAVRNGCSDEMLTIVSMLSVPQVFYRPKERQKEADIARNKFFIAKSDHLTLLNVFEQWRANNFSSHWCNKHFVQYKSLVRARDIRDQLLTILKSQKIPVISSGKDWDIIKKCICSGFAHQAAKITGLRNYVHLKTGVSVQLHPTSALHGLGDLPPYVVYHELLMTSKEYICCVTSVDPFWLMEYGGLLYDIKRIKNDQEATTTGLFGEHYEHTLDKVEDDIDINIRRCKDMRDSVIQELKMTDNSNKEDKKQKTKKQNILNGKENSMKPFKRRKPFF

[2] = target: T2, recombinant Prp16p (wild type) (budding yeast, UniProt P15938 1-1071)
T2 sequence (looked up): T1 sequence with I686R

[3] = target: T3, recombinant Prp16p DE473-4AA (budding yeast) (UniProt P15938)
T3 sequence: T1 sequence with D473A, E474A, I686R

binding [1]: binds | binding [2]: binds | binding [3]: binds
B1: recombinant Brr2 Sec63-2p (domain or fragment, budding yeast, UniProt P32639 1846-2160, looked up)
chain: TLSNGLIASHYGVSFFTIQSFVSSLSNTSTLKNMLYVLSTAVEFESVPLRKGDRALLVKLSKRLPLRFPEHTSSGSVSFKVFLLLQAYFSRLELPVDFQNDLKDILEKVVPLINVVVDILSANGYLNATTAMDLAQMLIQGVWDVDNPLRQIPHFNNKILEKCKEINVETVYDIMALEDEERDEILTLTDSQLAQVAAFVNNYPNVELTYSLNNSDSLISGVKQKITIQLTRDVEPENLQVTSEKYPFDKLESWWLVLGEVSKKELYAIKKVTLNKETQQYELEFDTPTSGKHNLTIWCVCDSYLDADKELSFEI
notes: Brr2p, budding yeast, carboxy-terminal Sec63-2 domain; detected with anti-His-HRP antibodies; also called WT Sec63-2p; Brr2 Sec63-2p domain; source: E. coli BL21 RIL, purified (Hi-Trap IMAC HP charged with Ni)

binding [1]: binds | binding [2]: binds | binding [3]: binds
B2: recombinant Brr2 Sec63-2 R1899Gp (domain or fragment, budding yeast, UniProt P32639 1846-2160, looked up)
chain: B1 chain with R54G
notes: Brr2p, budding yeast, carboxy-terminal Sec63-2 domain; also called Sec63-2 R1899G mutant protein; Brr2-R1899G mutant protein; source: E. coli BL21 RIL, purified (Hi-Trap IMAC HP charged with Ni)
